Experimental data: paper PMC9112550, “Optimization of the antimicrobial peptide Bac7 by deep mutational scanning” (BMC Biology, 2022)

System: E. coli TOP10
Assay: Deep mutational scanning, site-saturation Bac7_1-23 library, intracellular self-screening with NGS
Assay type: cell-based
Conditions: site-saturation library, 156,779 variants; rank 1 = most active
Description: A focused strategy was pursued to generate diversity at positions 5, 18, 19, and 20 in the Bac7_1-23 peptide. […] Degeneration was introduced by using the QuikChange technique, amplifying the pBAD plasmid containing the Bac7_1-23 gene using a mixture of 20 oligonucleotides (Additional file 1: Table S1) at a final concentration of 0.3 μM and Phusion® High-Fidelity PCR Master Mix in HF buffer. The amplification was performed using 20 cycles of 98°C for 10 s, 60°C for 15 s, and 72°C for 10 s. The PCR product was treated with the enzyme Dpn1 to remove the template plasmid and subsequently purified. The purified product was used to transform 20 μl of CloneCatcher™ Gold DH5G Electrocompetent E. coli (Genlantis, Burlington, USA) cells using electroporation.
To assess the antimicrobial activity of multiple peptides in parallel when expressed intracellularly in E. coli TOP10, previously prepared aliquots containing E. coli plasmid libraries created by either random mutagenesis or site-saturation mutagenesis were used. For both approaches, three aliquots containing approximately 500 million cells each of E. coli TOP10 harboring peptide-encoding DNA sequences on the pBAD plasmid were thawed and added to three 1-l baffled shake flasks containing 100 ml of LB medium + 100 μg ml^−1 carbenicillin. The cultures were grown for roughly 7 h at 37°C.

“RRIRPRPPRLPRPRPRPYMKPRP [site-saturation library peptide ID 127525]” was tested, and the “Rank by antimicrobial activity” value was 1.
